Data taken from PubChem BioAssay AID330 (DTP/NCI, 2004).
The list shows only some results of the screen, not a fair sample: its compounds were picked by chemical class. Not every dose and run of a compound is shown. T/C is the treated group as % of the vehicle group. Some entries give survivors of the animals treated and no T/C: the source holds a T/C of zero for them, seemingly a mark for toxic or unscored doses. Some doses without a T/C left all or most animals alive at the check, yet need not have been tolerated: the source hardly ever lists a survival T/C far under the control, and the zero likely stands for such cases as well. Survivors were counted at the toxicity check, usually on the fifth day, unless a day is given; later deaths do not show. Schedules are NCI's codes, taken here to give the interval after Q, in days (D) or hours (H), and the number of doses after X. Some entries hold several experiments; the results are listed from low to high. For survival time, the PubChem record calls one and a half times the control and up active, and a quarter to a half above the control has no call in these data; cut-offs in other NCI protocols can differ. Some T/C values carry the count of animals alive at the toxicity check (mostly the fifth day); where neither a count nor a note follows, no animal had died by that day. Some T/C values are marked as having no survivor count here; that says nothing about deaths at the dose.

System: P388 leukemia ip, CD2F1 mice, survival T/C
Experiment: NCI In Vivo Anticancer Drug Screen. Data for tumor model P388 Leukemia (intraperitoneal) in CD2F1 (CDF1) mice
Settings: T/C endpoint: median survival time, higher T/C = longer survival
[1] = dose: 25.0 mg/kg/injection, schedule: Q04DX003 (ip), vehicle: saline with Tween-80
[2] = dose: 50.0 mg/kg/injection, schedule: Q04DX003 (ip), vehicle: saline with Tween-80
[3] = dose: 100.0 mg/kg/injection, schedule: Q04DX003 (ip), vehicle: saline with Tween-80
[4] = dose: 50.0 mg/kg/injection, schedule: Q01DX009 (ip), vehicle: Klucel (hydroxypropylcellulose) (HPC)
[5] = dose: 100.0 mg/kg/injection, schedule: Q01DX009 (ip), vehicle: Klucel (hydroxypropylcellulose) (HPC)
[6] = dose: 200.0 mg/kg/injection, schedule: Q01DX009 (ip), vehicle: Klucel (hydroxypropylcellulose) (HPC)
[7] = dose: 100.0 mg/kg/injection, schedule: Q04DX003 (ip), vehicle: Klucel (hydroxypropylcellulose) (HPC)
[8] = dose: 200.0 mg/kg/injection, schedule: Q04DX003 (ip), vehicle: Klucel (hydroxypropylcellulose) (HPC)
[9] = dose: 3.12 mg/kg/injection, schedule: Q01DX009 (ip), vehicle: Klucel (hydroxypropylcellulose) (HPC)
[10] = dose: 6.25 mg/kg/injection, schedule: Q01DX009 (ip), vehicle: Klucel (hydroxypropylcellulose) (HPC)
[11] = dose: 12.5 mg/kg/injection, schedule: Q01DX009 (ip), vehicle: Klucel (hydroxypropylcellulose) (HPC)
[12] = dose: 25.0 mg/kg/injection, schedule: Q01DX009 (ip), vehicle: Klucel (hydroxypropylcellulose) (HPC)
[13] = dose: 50.0 mg/kg/injection, schedule: Q01DX009 (ip), vehicle: saline with Tween-80
[14] = dose: 60.0 mg/kg/injection, schedule: Q01DX005 (ip), vehicle: Klucel (hydroxypropylcellulose) (HPC)
[15] = dose: 120.0 mg/kg/injection, schedule: Q01DX005 (ip), vehicle: Klucel (hydroxypropylcellulose) (HPC)
[16] = dose: 240.0 mg/kg/injection, schedule: Q01DX005 (ip), vehicle: Klucel (hydroxypropylcellulose) (HPC)

## CN=C(Nc1ccccc1)NP(=O)(Nc1ccccc1)Nc1ccccc1
dose: 12.5 mg/kg/injection, schedule: Q01DX009 (ip), vehicle: distilled water + Tween-80
  T/C: 96 % of control
dose: 25.0 mg/kg/injection, schedule: Q01DX009 (ip), vehicle: distilled water + Tween-80
  T/C: 96 % of control
dose: 50.0 mg/kg/injection, schedule: Q01DX009 (ip), vehicle: distilled water + Tween-80
  survivor count: 6 of 6
dose: 100.0 mg/kg/injection, schedule: Q01DX009 (ip), vehicle: distilled water + Tween-80
  T/C: 86 % of control [5 of 6 alive]
dose: 200.0 mg/kg/injection, schedule: Q01DX009 (ip), vehicle: distilled water + Tween-80
  T/C: 86 % of control

## CN(C)c1ccccc1.O=[N+]([O-])c1cc([N+](=O)[O-])c(O)c([N+](=O)[O-])c1
[1]
  T/C: 100 % of control [survivor count not shown]
[2]
  T/C: 107 % of control [survivor count not shown]
[3]
  T/C: 100 % of control [survivor count not shown]

## NC(=O)c1cc(I)cc(I)c1N=NN(CCCl)CCCl
[4]
  T/C: 122 % of control
[5]
  T/C: 123 % of control
[6]
  T/C: 145 % of control

## CC12CCC(/C(=C/N(CCCl)CCCl)C1=O)C(C)(C)O2 (stereo not given)
[7]
  T/C: 106 % of control
[8]
  T/C: 103 % of control
dose: 400.0 mg/kg/injection, schedule: Q04DX003 (ip), vehicle: Klucel (hydroxypropylcellulose) (HPC)
  T/C: 113 % of control [5 of 6 alive]

## ICCN(CCI)c1cccc2ccccc12
dose: 0.39 mg/kg/injection, schedule: Q01DX009 (ip), vehicle: Klucel (hydroxypropylcellulose) (HPC)
  T/C: 148 % of control
dose: 0.78 mg/kg/injection, schedule: Q01DX009 (ip), vehicle: Klucel (hydroxypropylcellulose) (HPC)
  T/C: 141 % of control
dose: 1.56 mg/kg/injection, schedule: Q01DX009 (ip), vehicle: Klucel (hydroxypropylcellulose) (HPC)
  T/C: 119 and 170 % of control
[9]
  T/C: 121 % of control
  survivor count: 6 of 6
dose: 3.13 mg/kg/injection, schedule: Q01DX009 (ip), vehicle: Klucel (hydroxypropylcellulose) (HPC)
  T/C: 153 % of control
[10]
  T/C: 92, 158, 164 % of control
  survivor count: 6 of 6
[11]
  T/C: 95 [5 of 6 alive], 169, 179 % of control
  survivor count: 5 of 6
[12]
  T/C: 111 % of control
  survivor count: 5 of 6
[4]
  survivor count: 2 of 6 and 6 of 6
[5]
  survivor count: 6 of 6
[6]
  survivor count: 4 of 6

## N/C(=N\[N+](=O)[O-])N(CCO[N+](=O)[O-])N=O
dose: 25.0 mg/kg/injection, schedule: Q01DX009 (ip), vehicle: saline with Tween-80
  T/C: 127 % of control [survivor count not shown]
[1]
  T/C: 118 % of control [survivor count not shown]
[13]
  T/C: 127 % of control [survivor count not shown]
[2]
  T/C: 118 % of control [survivor count not shown]
dose: 66.0 mg/kg/injection, schedule: Q04DX003 (ip), vehicle: saline with Tween-80
  T/C: 131 % of control [survivor count not shown]
[3]
  T/C: 131 [survivor count not shown] and 140 % of control [survivor count not shown]

## COP(OC)C1CCC(C)CC1 (stereo not given)
dose: 100.0 mg/kg/injection, schedule: Q01DX001 (ip), vehicle: saline
  T/C: 99 % of control
dose: 200.0 mg/kg/injection, schedule: Q01DX001 (ip), vehicle: saline
  T/C: 119 % of control
dose: 400.0 mg/kg/injection, schedule: Q01DX001 (ip), vehicle: saline
  T/C: 115 % of control

## CC1(CCl)COP(=O)(n2cnc3ccccc32)OC1 (stereo not given)
[14]
  T/C: 101 % of control
[15]
  T/C: 100 % of control
[16]
  T/C: 96 % of control [4 of 6 alive]

## CN(C)[P+](On1nnc2ccccc21)(N(C)C)N(C)C.F[P-](F)(F)(F)(F)F
dose: 1.87 mg/kg/injection, schedule: Q01DX005 (ip), vehicle: Klucel (hydroxypropylcellulose) (HPC)
  T/C: 107 % of control
dose: 3.75 mg/kg/injection, schedule: Q01DX005 (ip), vehicle: Klucel (hydroxypropylcellulose) (HPC)
  T/C: 103 % of control
dose: 7.5 mg/kg/injection, schedule: Q01DX005 (ip), vehicle: Klucel (hydroxypropylcellulose) (HPC)
  survivor count: 0 of 6 and 1 of 6
dose: 15.0 mg/kg/injection, schedule: Q01DX005 (ip), vehicle: Klucel (hydroxypropylcellulose) (HPC)
  survivor count: 0 of 6
dose: 30.0 mg/kg/injection, schedule: Q01DX005 (ip), vehicle: Klucel (hydroxypropylcellulose) (HPC)
  survivor count: 0 of 6
[14]
  survivor count: 0 of 6
[15]
  survivor count: 0 of 6
[16]
  survivor count: 0 of 6

## CCOP1OCC(CC)CO1 (stereo not given)
dose: 100.0 mg/kg/injection, schedule: Q04DX002 (ip), vehicle: saline with Tween-80
  T/C: 113 % of control
dose: 200.0 mg/kg/injection, schedule: Q04DX002 (ip), vehicle: saline with Tween-80
  T/C: 88 % of control
dose: 400.0 mg/kg/injection, schedule: Q04DX002 (ip), vehicle: saline with Tween-80
  T/C: 110 % of control

## CCOP(=O)(OCC)N(C)N=NC
dose: 50.0 mg/kg/injection, schedule: Q01DX005 (ip), vehicle: saline
  T/C: 103 % of control
dose: 100.0 mg/kg/injection, schedule: Q01DX005 (ip), vehicle: saline
  T/C: 98 % of control
dose: 200.0 mg/kg/injection, schedule: Q01DX005 (ip), vehicle: saline
  T/C: 103 % of control

## O=[N+]([O-])c1cc([N+](=O)[O-])c(-c2nc([N+](=O)[O-])c(-c3c([N+](=O)[O-])cc([N+](=O)[O-])cc3[N+](=O)[O-])s2)c([N+](=O)[O-])c1
[13]
  T/C: 115 % of control
dose: 100.0 mg/kg/injection, schedule: Q01DX009 (ip), vehicle: saline with Tween-80
  T/C: 100 % of control
dose: 200.0 mg/kg/injection, schedule: Q01DX009 (ip), vehicle: saline with Tween-80
  survivor count: 3 of 6

## CC1CCN(C)C(c2ccccc2)C1.O=[N+]([O-])c1cc([N+](=O)[O-])c(O)c([N+](=O)[O-])c1
dose: 50.0 mg/kg/injection, schedule: Q01DX005 (ip), vehicle: saline with Tween-80
  T/C: 100 % of control
dose: 100.0 mg/kg/injection, schedule: Q01DX005 (ip), vehicle: saline with Tween-80
  T/C: 100 % of control
dose: 200.0 mg/kg/injection, schedule: Q01DX005 (ip), vehicle: saline with Tween-80
  T/C: 97 % of control [4 of 6 alive]

## CN(C)C(=S)SCc1c([N+](=O)[O-])cc([N+](=O)[O-])cc1[N+](=O)[O-]
dose: 100.0 mg/kg/injection, schedule: Q04DX003 (ip), vehicle: saline
  T/C: 100 % of control
dose: 200.0 mg/kg/injection, schedule: Q04DX003 (ip), vehicle: saline
  T/C: 102 % of control
dose: 400.0 mg/kg/injection, schedule: Q04DX003 (ip), vehicle: saline
  T/C: 100 % of control

## N=C(N[N+](=O)[O-])N(CCN1CCN=C1N[N+](=O)[O-])N=O
dose: 50.0 mg/kg/injection, schedule: Q01DX009 (ip), vehicle: saline sonified
  T/C: 100 % of control
dose: 50.0 mg/kg/injection, schedule: Q04DX003 (ip), vehicle: Klucel (hydroxypropylcellulose) (HPC)
  T/C: 100 % of control
dose: 100.0 mg/kg/injection, schedule: Q01DX009 (ip), vehicle: saline sonified
  T/C: 100 % of control
[7]
  T/C: 100 % of control
dose: 200.0 mg/kg/injection, schedule: Q01DX009 (ip), vehicle: saline sonified
  T/C: 109 % of control
[8]
  T/C: 90 % of control
